The supplement of paper PMC10849652
Some of the results follow.

By UniProt entry, the sequences of proteins in these tests, tags left out. Where a name states a change or a piece, a line headed by the entry shows the natural chain unless it says otherwise.
UniProt P49711: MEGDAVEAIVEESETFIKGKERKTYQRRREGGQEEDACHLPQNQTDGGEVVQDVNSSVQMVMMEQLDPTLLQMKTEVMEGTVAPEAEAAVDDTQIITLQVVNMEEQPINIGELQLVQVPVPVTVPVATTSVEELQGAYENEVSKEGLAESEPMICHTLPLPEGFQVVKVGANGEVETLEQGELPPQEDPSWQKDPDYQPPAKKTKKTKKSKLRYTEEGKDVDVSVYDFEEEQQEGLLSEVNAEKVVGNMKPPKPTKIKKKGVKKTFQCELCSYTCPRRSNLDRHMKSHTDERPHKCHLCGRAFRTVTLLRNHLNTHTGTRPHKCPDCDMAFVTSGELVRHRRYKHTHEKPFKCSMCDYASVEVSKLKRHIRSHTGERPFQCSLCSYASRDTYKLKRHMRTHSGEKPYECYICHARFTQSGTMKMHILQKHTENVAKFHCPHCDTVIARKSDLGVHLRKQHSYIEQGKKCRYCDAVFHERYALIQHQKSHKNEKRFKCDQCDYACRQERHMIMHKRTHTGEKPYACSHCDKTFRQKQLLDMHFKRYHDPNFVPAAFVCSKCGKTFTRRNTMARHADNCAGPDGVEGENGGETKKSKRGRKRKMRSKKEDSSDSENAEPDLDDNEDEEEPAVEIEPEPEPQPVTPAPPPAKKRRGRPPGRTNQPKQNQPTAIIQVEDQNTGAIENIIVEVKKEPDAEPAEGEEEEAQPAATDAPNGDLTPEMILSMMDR
UniProt Q05048: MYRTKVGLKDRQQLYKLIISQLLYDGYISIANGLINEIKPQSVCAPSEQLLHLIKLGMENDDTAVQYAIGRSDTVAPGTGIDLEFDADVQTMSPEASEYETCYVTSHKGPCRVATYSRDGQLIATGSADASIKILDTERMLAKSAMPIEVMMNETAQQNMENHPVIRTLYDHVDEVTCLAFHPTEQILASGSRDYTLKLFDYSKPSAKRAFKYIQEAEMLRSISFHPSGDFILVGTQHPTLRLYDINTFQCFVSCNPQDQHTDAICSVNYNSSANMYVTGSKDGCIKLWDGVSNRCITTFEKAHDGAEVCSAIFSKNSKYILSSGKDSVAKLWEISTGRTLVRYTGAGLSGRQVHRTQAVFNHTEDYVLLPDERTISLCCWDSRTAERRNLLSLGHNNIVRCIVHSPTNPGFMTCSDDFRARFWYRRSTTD
UniProt P04080: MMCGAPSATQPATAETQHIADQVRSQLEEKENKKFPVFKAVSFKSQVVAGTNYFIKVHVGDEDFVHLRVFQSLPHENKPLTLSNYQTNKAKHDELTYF
UniProt P0DMU9: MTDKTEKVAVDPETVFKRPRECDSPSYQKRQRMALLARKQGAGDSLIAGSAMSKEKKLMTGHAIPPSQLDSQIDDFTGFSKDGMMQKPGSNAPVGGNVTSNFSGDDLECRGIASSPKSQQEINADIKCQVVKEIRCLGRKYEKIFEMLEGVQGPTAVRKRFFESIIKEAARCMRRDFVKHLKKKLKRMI
UniProt Q13617, whole entry, looked up: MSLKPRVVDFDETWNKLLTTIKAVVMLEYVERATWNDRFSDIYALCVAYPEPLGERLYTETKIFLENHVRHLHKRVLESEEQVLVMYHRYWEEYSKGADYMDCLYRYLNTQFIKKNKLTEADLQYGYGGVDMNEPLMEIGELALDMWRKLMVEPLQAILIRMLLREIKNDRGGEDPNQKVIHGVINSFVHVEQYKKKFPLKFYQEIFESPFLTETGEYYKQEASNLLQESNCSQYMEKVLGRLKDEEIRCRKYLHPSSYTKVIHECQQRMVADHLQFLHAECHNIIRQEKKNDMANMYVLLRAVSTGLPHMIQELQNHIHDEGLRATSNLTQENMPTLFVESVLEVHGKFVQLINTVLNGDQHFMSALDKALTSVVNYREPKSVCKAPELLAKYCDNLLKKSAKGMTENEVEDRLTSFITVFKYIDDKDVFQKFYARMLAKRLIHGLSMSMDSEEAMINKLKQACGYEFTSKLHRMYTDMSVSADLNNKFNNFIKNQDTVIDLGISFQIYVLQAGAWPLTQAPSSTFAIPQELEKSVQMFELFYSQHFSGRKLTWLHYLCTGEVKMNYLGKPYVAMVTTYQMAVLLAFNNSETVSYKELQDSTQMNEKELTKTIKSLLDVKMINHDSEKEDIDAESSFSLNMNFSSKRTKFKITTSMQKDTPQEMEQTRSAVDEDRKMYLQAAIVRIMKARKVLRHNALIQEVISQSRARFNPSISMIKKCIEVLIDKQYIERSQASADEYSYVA
UniProt Q92793, whole entry, looked up: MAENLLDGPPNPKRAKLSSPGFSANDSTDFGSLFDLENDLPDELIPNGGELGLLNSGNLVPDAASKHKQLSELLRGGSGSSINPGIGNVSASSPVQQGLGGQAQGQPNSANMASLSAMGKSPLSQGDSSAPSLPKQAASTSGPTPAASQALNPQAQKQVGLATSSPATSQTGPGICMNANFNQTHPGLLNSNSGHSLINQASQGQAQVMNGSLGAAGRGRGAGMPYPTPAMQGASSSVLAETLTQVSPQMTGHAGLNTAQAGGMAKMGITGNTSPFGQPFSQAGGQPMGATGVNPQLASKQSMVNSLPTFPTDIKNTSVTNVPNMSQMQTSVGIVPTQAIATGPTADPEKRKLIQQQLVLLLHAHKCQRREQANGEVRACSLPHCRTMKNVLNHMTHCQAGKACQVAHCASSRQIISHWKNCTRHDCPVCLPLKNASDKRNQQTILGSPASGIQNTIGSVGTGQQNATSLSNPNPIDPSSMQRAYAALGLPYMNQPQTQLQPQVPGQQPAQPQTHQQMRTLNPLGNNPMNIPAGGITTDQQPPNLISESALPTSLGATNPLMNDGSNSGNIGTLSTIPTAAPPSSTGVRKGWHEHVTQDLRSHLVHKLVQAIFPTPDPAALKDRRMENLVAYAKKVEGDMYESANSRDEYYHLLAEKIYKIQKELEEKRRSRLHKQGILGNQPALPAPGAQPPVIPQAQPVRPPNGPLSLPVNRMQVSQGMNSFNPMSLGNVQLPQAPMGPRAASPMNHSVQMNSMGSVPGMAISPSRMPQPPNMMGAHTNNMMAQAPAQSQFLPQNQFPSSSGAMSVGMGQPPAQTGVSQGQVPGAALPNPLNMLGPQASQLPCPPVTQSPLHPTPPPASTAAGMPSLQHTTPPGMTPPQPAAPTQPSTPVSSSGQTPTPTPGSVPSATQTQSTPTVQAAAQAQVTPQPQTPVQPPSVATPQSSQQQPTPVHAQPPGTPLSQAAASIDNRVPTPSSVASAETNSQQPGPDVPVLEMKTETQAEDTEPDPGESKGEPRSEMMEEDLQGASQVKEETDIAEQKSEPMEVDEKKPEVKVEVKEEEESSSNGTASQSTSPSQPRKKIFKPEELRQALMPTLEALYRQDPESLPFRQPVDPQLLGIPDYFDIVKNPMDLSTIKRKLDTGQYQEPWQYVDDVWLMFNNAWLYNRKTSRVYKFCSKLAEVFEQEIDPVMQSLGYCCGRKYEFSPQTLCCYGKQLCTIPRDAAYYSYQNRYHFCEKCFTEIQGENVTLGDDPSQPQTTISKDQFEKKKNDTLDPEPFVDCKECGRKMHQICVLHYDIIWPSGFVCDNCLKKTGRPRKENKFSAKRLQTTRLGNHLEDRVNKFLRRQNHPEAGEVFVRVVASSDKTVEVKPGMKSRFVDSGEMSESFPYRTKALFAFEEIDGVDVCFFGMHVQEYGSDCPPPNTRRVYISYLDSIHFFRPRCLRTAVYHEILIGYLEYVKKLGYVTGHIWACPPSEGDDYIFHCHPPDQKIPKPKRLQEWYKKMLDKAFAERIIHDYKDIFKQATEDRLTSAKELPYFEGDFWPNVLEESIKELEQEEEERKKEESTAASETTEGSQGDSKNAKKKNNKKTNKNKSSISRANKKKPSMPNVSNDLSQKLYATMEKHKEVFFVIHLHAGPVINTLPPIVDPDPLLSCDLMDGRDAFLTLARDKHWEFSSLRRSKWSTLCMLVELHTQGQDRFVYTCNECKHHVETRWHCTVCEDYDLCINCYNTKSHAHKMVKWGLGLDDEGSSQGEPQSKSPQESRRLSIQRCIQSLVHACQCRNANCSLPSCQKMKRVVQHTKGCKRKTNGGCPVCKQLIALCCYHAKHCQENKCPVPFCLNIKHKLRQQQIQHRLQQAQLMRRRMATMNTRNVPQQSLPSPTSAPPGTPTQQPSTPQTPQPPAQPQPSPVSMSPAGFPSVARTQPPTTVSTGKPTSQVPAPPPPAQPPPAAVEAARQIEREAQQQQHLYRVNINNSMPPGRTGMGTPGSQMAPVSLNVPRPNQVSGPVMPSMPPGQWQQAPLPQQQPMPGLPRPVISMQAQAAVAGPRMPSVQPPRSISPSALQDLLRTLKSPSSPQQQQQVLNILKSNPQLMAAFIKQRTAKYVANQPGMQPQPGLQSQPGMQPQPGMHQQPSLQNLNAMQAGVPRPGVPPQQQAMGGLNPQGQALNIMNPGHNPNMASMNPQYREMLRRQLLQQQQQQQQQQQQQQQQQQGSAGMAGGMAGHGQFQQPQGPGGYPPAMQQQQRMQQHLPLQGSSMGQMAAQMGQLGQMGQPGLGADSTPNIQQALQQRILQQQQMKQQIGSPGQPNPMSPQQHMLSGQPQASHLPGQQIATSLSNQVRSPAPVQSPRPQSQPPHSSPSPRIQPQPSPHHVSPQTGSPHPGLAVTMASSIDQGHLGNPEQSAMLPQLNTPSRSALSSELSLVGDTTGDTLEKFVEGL
UniProt Q8TB03: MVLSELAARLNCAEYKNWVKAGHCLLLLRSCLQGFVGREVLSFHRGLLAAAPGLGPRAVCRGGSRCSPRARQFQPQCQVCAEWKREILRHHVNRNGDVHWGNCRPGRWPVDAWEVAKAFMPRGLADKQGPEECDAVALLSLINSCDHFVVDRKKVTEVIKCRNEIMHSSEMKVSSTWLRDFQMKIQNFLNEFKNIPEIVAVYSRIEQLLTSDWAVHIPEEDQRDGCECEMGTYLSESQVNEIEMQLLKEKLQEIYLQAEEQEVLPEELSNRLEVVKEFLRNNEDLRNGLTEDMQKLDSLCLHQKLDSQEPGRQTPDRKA

How the values were obtained:
Test in all cases: log2 fold change, soluble protein after heating vs DMSO (PISA); higher = thermal stabilisation; K562 lysate, 10 uM; active = over 0.2 and 3.5 SD of the protein, either way, in both replicates (recomputed)
[1] = compound: C1=CC=C(C=C1)[C@H](COC2=CC3=C(C=C2)NC(=O)N3)NC(=O)C4=CC=CN(C4=O)CC5=CC(=C(C=C5)F)F
Outline: (§1)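 A 30 min treatment with 10 μM compound was applied to crude K562 extract at 1 mg/mL protein in PBS pH 7.4 with 1 mM MgCl2. Heating for 3 min spanned 48°C-58°C, after which aliquots were pooled, adjusted to 0.5% NP-40 at 4°C and spun at 21,000xg for 90 min. TMTpro 16plex LC-MS/MS of the supernatant, with channel sums equalised, gave values recorded as log-two fold change in thermal stability against solvent controls, from duplicates.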

[2] = compound: CC1=C(SC2=C1C(=N[C@H](C3=NN=C(N32)C)CC(=O)N)C4=CC=C(C=C4)Cl)C
Outline: as §1

[3] = compound: CC1=C2C(=CC=C1)N=C(N(C2=O)C3=CC=CC=C3C)CN4C=NC5=C(N=CN=C54)N
Outline: as §1

[4] = compound: Cc1sc2c(c1C)C(c1ccc(Cl)cc1)=N[C@@H](CC(=O)OC(C)(C)C)c1nnc(C)n1-2
Outline: as §1

[5] = compound: c1ccc([C@@H]2C[C@H]2NC2CCNCC2)cc1
Outline: as §1

Measured: log2 fold change

CTCF (UniProt P49711)
inactive: [1] 0.034 | [2] -0.033 | [3] 0.073 | [4] -0.047 | [5] 0.098

CSTF1 (UniProt Q05048)
inactive: [1] 0.019 | [2] 0.058 | [3] -0.018 | [4] 0.013 | [5] -0.018

CSTB (UniProt P04080)
inactive: [1] -0.031 | [2] -0.018 | [3] -0.032 | [4] -0.071 | [5] -0.146

CT45A10 (UniProt P0DMU9)
inactive: [1] 0.019 | [2] 0.01 | [3] -0.012 | [4] -0.004 | [5] 0.064

CUL2 isoform 2 (UniProt Q13617)
inactive: [1] 0.004 | [2] 0.008 | [3] 0.014 | [4] 0.036 | [5] 0.014

CREBBP (UniProt Q92793)
inactive: [1] -0.046 | [2] -0.018 | [3] 0.011 | [4] 0.024 | [5] 0.002

CROCC (UniProt Q5TZA2)
inactive: [1] -0.085 | [2] 0.09 | [3] 0.085 | [4] -0.035 | [5] 0.004

CYB5R2 (UniProt Q6BCY4)
inactive: [1] 0.001 | [2] 0.003 | [3] 0.163 | [4] -0.063 | [5] -0.063

CXorf38 (UniProt Q8TB03)
inactive: [1] 0.021 | [2] 0.007 | [3] -0.021 | [4] -0.004 | [5] 0.031
